Laboratory results: PubChem BioAssay AID1159584 (Peter MacCallum Cancer Centre, 2016)
Shown is a random part of about 18,000 reagents. Further read-outs or replicates are left out here. The record does not give: the amount of reagent, the time to read-out.

Aim: 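Genes that CDH1-null MCF10A cells selectively depend on to survive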 (primary screen)
Cells: human MCF10A breast epithelial cells, parental and CDH1-null
Reagent: siRNA against human genes
Measurement: 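Cell viability by CellTiter-Glo ATP luminescence, each line scaled to the mean of mock wells across plates, then CDH1-null over parental ratio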
Reading the numbers: CDH1-null / parental viability ratio: higher = CDH1-null cells survive relatively better than parental

ZBTB33 (zinc finger and BTB domain containing 33)
- CDH1-null / parental viability ratio: 1.07

FMO3 (flavin containing dimethylaniline monoxygenase 3)
- CDH1-null / parental viability ratio: 1.11

PPEF1 (protein phosphatase with EF-hand domain 1)
- CDH1-null / parental viability ratio: 1.23

KLF6 (KLF transcription factor 6)
- CDH1-null / parental viability ratio: 0.67

DOK5 (docking protein 5)
- CDH1-null / parental viability ratio: 1.27

TRH (thyrotropin releasing hormone)
- CDH1-null / parental viability ratio: 1.26

IMP4 (IMP U3 small nucleolar ribonucleoprotein 4)
- CDH1-null / parental viability ratio: 1.07

ANKDD1A (ankyrin repeat and death domain containing 1A)
- CDH1-null / parental viability ratio: 1.01

TRNP1 (TMF1 regulated nuclear protein 1)
- CDH1-null / parental viability ratio: 1.21

USP11 (ubiquitin specific peptidase 11)
- CDH1-null / parental viability ratio: 1.07

SLC5A12
- CDH1-null / parental viability ratio: 0.96

TMEM205 (transmembrane protein 205)
- CDH1-null / parental viability ratio: 0.91

CST1 (cystatin SN)
- CDH1-null / parental viability ratio: 1.4

DLST (dihydrolipoamide S-succinyltransferase)
- CDH1-null / parental viability ratio: 0.88

HYAL2 (hyaluronidase 2)
- CDH1-null / parental viability ratio: 0.87

RGS9BP (regulator of G protein signaling 9 binding protein)
- CDH1-null / parental viability ratio: 0.99

DND1 (DND microRNA-mediated repression inhibitor 1)
- CDH1-null / parental viability ratio: 0.83

KRTAP12-4 (keratin associated protein 12-4)
- CDH1-null / parental viability ratio: 1.04

TMTC4 (transmembrane O-mannosyltransferase targeting cadherins 4)
- CDH1-null / parental viability ratio: 1.37

TCAIM (T cell activation inhibitor, mitochondrial)
- CDH1-null / parental viability ratio: 1.17

SRD5A1 (steroid 5 alpha-reductase 1)
- CDH1-null / parental viability ratio: 1.3

GCLC (glutamate-cysteine ligase catalytic subunit)
- CDH1-null / parental viability ratio: 0.95

WDR47 (WD repeat domain 47)
- CDH1-null / parental viability ratio: 1.12

NGEF (neuronal guanine nucleotide exchange factor)
- CDH1-null / parental viability ratio: 0.8

MRPL20 (mitochondrial ribosomal protein L20)
- CDH1-null / parental viability ratio: 0.83

HAT1 (histone acetyltransferase 1)
- CDH1-null / parental viability ratio: 0.98

SLC27A4
- CDH1-null / parental viability ratio: 0.82

RBM15 (RNA binding motif protein 15)
- CDH1-null / parental viability ratio: 0.78

BTD (biotinidase)
- CDH1-null / parental viability ratio: 1.03

CDC37P1 (cell division cycle 37 pseudogene 1)
- CDH1-null / parental viability ratio: 0.9

BTBD7 (BTB domain containing 7)
- CDH1-null / parental viability ratio: 1.16

USP6NL (USP6 N-terminal like)
- CDH1-null / parental viability ratio: 1.4

C22orf23 (chromosome 22 open reading frame 23)
- CDH1-null / parental viability ratio: 1.06

SPTAN1 (spectrin alpha, non-erythrocytic 1)
- CDH1-null / parental viability ratio: 0.71

FSCN1 (fascin actin-bundling protein 1)
- CDH1-null / parental viability ratio: 1.18

IFI35 (interferon induced protein 35)
- CDH1-null / parental viability ratio: 1.18

IZUMO1 (izumo sperm-oocyte fusion 1)
- CDH1-null / parental viability ratio: 0.9

RAB3IL1 (RAB3A interacting protein like 1)
- CDH1-null / parental viability ratio: 0.96

C10orf53 (chromosome 10 open reading frame 53)
- CDH1-null / parental viability ratio: 1.11

DNAH8 (dynein axonemal heavy chain 8)
- CDH1-null / parental viability ratio: 0.91

SLC2A4
- CDH1-null / parental viability ratio: 0.9

CCNL2 (cyclin L2)
- CDH1-null / parental viability ratio: 1.25

STING1 (stimulator of interferon response cGAMP interactor 1)
- CDH1-null / parental viability ratio: 0.69

GOLT1A (golgi transport 1A)
- CDH1-null / parental viability ratio: 1.06

SPANXA2 (SPANX family member A2)
- CDH1-null / parental viability ratio: 1.29

Entries listed so far whose gene name starts with R or r (3):
RGS9BP (regulator of G protein signaling 9 binding protein)
- CDH1-null / parental viability ratio: 0.99

RBM15 (RNA binding motif protein 15)
- CDH1-null / parental viability ratio: 0.78

RAB3IL1 (RAB3A interacting protein like 1)
- CDH1-null / parental viability ratio: 0.96
